{
  "source": "patent US7635572B2",
  "about": "“Methods for conducting assays for enzyme activity on protein microarrays” (Life Technologies Corporation, priority 2004, dated 2009)",
  "key": {"39 kinases (Table 4)": {"test_system": "39 kinases (Table 4)", "experiment": "Global specificity profiling, single point inhibition on kinase microarrays (Example VII)", "format": "biochemical", "conditions": "substrates histone, casein, MBP, polyEY, control 2% DMSO", "method": "To assess the application of microarray assays for compound profiling, seven known inhibitors (see Table of inhibitors used in global specificity profiling experiment) and one control (2% DMSO) were tested on microarrays printed with a group of kinases (as well as positive and negative controls). […] Twelve spots of each kinase or control were printed on each array, and three arrays were used for each inhibitor. A mixture of generic kinase substrates (histone, casein, MBP, and polyEY) was used in the assay. The average of all signals from the same inhibitor or control experiment was calculated.\nTo expedite data analysis regarding the kinase families that are inhibited by a particular […], a graphical representation can be constructed of inhibition data for substrates in such a manner that phylogenetically related kinases can be spatially arranged on the graphical representation."}, "[1]": {"test_system": "plurality of kinases (Table 5)", "experiment": "Further analysis of a plurality of inhibitors and a plurality of kinases on microarray (Example IX, Table 5);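 note: inhibition of each kinase by the inhibitors is given as a qualitative level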;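 for Inhibition level, Homo sapiens in: level 0 none or unclear Level 1 marginal Level 2 substantial inhibition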;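 for Inhibition level, Homo sapiens, o: level 0 none or unclear Level 1 marginal Level 2 substantial inhibition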", "format": "biochemical"}},
  "data": [
    {"smiles": "CN[C@@H]1C[C@H]2O[C@@](C)([C@@H]1OC)n1c3ccccc3c3c4c(c5c6ccccc6n2c5c31)C(=O)NC4", "note": "[Staurosporine]", "values": [
      {"measurement": "observed specificity (percentage-of-inhibition data for 39 kinases)", "setting": "39 kinases (Table 4)", "result": "broad spectrum of kinases inhibited"},
      {"measurement": "Inhibition level, Homo sapiens in", "setting": "[1]", "result": 2},
      {"measurement": "Inhibition level, Homo sapiens p", "setting": "[1]", "result": 2},
      {"measurement": "Inhibition level, Homo sapiens, B", "setting": "[1]", "result": 2},
      {"measurement": "Inhibition level, Homo sapiens, S", "setting": "[1]", "result": 0},
      {"measurement": "Inhibition level, Homo sapiens, o", "setting": "[1]", "result": 0},
      {"measurement": "Inhibition level, Homo sapiens, s", "setting": "[1]", "result": 2}
    ]}
  ]
}
